In the supplement of paper PMC7666118:
Some of the results follow.

By UniProt entry, the sequences of proteins in these tests, tags left out. Where a name states a change or a piece, a line headed by the entry shows the natural chain unless it says otherwise.
UniProt P51114, whole entry: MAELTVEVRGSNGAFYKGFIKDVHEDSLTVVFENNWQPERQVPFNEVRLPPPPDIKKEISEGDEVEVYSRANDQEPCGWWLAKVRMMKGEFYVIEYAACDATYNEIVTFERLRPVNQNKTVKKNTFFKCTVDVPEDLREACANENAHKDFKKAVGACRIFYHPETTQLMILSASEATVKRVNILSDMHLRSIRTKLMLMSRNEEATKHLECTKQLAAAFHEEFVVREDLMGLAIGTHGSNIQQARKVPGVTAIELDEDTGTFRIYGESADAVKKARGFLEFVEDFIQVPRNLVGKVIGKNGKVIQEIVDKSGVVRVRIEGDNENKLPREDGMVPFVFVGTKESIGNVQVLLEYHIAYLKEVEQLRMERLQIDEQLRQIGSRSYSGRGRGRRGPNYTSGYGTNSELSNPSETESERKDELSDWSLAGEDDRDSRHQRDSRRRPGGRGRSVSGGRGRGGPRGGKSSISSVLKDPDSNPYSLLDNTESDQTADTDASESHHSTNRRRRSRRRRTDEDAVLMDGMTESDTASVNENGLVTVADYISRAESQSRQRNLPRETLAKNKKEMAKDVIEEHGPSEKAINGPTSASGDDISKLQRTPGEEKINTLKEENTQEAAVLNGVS
UniProt Q9BRX5: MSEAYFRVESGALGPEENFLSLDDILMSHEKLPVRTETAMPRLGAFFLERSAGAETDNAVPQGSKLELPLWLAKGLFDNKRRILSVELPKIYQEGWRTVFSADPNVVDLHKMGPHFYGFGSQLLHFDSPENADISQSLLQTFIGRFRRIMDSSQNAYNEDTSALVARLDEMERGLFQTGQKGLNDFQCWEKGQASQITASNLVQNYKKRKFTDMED
UniProt Q16595: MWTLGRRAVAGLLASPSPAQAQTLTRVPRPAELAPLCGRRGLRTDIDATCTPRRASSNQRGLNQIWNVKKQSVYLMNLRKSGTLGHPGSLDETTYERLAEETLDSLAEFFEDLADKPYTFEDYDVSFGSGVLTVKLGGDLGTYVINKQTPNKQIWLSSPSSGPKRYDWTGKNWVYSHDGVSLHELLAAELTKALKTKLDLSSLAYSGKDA
UniProt Q9H334: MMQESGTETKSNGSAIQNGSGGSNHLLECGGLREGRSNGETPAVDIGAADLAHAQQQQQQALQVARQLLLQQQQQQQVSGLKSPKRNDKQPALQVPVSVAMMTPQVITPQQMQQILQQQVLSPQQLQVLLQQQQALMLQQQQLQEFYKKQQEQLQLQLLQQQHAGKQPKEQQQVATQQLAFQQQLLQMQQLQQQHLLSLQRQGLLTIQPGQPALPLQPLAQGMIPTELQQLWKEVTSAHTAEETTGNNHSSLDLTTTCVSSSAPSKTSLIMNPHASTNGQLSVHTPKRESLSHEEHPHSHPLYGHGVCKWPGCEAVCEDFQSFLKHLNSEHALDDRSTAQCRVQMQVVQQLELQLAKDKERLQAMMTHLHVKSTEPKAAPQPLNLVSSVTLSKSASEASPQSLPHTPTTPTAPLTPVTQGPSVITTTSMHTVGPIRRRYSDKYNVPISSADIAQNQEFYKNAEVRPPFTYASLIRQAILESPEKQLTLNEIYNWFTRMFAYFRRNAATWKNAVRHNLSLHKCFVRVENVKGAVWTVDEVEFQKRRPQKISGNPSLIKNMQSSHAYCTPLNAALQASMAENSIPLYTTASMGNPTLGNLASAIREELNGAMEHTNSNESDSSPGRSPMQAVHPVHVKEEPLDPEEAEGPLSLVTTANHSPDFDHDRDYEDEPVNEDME
UniProt O14772: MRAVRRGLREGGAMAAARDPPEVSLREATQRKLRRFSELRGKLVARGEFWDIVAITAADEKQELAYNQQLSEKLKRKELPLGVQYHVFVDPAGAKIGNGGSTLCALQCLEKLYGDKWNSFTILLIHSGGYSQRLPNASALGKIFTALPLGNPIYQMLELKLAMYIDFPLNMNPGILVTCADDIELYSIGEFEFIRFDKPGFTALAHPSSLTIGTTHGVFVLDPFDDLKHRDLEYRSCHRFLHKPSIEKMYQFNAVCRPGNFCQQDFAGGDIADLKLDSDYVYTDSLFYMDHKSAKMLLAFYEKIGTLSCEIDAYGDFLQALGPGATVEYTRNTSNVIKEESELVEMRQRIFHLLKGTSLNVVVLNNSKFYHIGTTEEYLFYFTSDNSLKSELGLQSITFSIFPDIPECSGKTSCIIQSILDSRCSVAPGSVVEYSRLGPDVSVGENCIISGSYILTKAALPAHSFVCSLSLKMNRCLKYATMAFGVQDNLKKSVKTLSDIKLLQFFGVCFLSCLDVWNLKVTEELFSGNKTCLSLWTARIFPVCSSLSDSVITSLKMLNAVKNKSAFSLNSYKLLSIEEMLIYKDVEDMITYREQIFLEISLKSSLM
UniProt P0C2W1: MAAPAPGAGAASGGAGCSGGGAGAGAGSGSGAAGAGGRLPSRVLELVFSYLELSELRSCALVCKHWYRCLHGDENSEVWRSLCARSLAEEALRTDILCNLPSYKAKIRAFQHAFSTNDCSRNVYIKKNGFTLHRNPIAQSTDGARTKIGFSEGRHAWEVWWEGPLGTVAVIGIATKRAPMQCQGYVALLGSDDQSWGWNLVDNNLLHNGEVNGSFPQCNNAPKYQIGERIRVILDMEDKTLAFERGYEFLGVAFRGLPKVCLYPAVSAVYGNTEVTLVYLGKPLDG
UniProt Q9NZ52: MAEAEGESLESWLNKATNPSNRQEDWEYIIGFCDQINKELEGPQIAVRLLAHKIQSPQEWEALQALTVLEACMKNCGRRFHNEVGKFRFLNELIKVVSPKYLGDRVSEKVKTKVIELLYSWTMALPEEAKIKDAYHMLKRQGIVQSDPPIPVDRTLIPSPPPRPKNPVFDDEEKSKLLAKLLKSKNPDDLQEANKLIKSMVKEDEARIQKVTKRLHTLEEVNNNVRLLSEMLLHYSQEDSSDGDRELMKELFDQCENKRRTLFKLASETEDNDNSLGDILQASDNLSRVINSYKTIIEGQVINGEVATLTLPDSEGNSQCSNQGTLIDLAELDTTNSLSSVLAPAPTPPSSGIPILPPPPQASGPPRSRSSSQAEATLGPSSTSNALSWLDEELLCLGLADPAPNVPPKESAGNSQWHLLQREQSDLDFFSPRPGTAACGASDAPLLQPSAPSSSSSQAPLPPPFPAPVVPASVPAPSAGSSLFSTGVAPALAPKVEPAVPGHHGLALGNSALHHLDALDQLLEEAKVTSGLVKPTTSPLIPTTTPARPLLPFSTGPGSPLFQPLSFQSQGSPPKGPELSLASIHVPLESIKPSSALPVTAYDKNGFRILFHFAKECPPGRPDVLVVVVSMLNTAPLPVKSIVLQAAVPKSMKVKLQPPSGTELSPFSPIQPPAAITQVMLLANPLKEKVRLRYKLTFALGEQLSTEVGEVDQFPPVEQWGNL
UniProt Q9UK73, whole entry: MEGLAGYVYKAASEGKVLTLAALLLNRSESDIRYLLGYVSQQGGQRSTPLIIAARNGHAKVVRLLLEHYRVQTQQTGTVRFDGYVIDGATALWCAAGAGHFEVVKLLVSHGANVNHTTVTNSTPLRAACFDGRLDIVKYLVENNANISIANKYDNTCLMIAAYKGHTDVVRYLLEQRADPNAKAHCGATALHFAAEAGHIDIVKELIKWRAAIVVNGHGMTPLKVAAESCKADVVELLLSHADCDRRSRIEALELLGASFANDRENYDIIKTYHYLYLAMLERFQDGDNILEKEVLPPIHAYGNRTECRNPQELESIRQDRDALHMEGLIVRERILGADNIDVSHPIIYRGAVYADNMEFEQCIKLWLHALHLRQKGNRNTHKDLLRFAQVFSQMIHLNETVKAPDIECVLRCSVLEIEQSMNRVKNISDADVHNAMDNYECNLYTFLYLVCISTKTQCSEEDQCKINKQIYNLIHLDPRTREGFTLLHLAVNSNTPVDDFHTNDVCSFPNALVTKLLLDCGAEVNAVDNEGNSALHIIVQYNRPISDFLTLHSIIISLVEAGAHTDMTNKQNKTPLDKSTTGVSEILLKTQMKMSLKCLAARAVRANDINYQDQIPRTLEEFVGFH
UniProt Q96C23: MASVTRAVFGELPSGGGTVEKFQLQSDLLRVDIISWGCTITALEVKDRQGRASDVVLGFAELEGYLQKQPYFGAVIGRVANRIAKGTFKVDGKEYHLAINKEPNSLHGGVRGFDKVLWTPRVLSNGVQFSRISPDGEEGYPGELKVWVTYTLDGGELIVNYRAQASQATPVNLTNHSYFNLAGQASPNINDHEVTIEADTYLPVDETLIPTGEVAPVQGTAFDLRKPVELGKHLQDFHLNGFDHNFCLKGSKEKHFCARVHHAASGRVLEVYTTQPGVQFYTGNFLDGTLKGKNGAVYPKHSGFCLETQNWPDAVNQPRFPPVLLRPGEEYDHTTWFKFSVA
UniProt P11413, whole entry: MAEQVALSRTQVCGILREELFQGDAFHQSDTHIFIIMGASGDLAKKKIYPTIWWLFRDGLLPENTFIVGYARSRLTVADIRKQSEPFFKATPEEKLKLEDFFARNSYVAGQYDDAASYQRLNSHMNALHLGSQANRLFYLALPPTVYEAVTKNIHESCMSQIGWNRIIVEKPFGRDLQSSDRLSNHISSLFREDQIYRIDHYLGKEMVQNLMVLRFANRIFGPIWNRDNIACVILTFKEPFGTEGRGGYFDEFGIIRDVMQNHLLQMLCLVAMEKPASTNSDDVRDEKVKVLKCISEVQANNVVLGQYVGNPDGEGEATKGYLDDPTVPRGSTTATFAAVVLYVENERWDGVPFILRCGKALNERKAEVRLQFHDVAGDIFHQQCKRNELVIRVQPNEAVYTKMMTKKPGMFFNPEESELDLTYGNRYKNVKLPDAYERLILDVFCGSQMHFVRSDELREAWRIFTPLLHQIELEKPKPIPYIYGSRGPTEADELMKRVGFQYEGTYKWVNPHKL
UniProt Q13643: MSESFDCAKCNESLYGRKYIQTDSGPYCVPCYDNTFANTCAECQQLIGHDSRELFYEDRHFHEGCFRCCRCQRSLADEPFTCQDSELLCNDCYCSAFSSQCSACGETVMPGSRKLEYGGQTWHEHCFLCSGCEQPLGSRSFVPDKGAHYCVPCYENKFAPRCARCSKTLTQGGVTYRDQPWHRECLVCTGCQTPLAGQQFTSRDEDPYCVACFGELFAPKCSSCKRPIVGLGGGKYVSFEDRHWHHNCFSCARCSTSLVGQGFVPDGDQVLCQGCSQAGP
UniProt Q9Y2X7: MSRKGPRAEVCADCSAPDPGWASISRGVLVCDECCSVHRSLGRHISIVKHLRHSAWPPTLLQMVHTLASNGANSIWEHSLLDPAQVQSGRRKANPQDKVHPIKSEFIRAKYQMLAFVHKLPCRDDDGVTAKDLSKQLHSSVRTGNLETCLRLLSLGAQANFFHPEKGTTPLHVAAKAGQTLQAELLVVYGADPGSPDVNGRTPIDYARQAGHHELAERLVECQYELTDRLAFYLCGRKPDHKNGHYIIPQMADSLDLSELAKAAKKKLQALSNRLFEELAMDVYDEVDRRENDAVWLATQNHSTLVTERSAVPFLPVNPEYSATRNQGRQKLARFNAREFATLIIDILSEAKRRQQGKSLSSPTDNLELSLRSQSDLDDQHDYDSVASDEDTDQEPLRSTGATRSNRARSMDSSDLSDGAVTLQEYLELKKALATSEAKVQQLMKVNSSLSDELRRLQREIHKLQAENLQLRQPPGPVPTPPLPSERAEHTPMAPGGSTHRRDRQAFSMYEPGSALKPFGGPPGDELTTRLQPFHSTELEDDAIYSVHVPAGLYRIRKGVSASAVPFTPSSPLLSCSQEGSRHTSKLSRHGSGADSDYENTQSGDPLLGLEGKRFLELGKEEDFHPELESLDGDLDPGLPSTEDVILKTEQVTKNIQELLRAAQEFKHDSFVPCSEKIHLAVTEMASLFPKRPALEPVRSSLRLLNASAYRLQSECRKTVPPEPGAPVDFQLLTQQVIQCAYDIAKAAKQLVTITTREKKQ
UniProt Q96SL8: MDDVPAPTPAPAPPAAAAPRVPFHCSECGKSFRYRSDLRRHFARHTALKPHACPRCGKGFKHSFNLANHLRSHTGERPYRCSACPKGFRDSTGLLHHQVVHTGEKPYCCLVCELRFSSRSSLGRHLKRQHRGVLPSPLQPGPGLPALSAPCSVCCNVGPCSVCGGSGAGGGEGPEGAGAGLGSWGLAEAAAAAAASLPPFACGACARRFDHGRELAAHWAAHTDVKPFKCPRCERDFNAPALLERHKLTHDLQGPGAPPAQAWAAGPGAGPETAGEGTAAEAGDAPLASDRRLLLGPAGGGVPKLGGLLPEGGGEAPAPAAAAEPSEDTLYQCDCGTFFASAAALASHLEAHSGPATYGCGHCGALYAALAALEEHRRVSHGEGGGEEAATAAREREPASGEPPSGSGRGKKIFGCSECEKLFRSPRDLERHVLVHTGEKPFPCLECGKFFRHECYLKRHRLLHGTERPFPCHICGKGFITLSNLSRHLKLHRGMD
UniProt Q96CP2: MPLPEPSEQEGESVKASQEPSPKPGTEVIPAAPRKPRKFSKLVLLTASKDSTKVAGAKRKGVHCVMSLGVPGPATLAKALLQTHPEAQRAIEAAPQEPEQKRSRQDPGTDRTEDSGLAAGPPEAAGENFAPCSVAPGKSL

Compound: COc1ccc(Cn2ccc3cc(C)c(C(=O)NO)cc32)cc1
Test: dose-dependent thermal stabilisation call (2D-TPP, DLPTP, 10% FDR) (binary (1 = stabilised)); higher = stabilised by the compound
Details: system: HL-60 intact cells; concentration range 0.04-10 µM
Description: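 2D thermal proteome profiling in intact HL-60 cells treated with BRD-3811 (0, 0.04, 0.29, 2, 10 uM) for 90 min at 37 C, then heated 3 min at one of 12 temperatures (42-63.9 C). Soluble protein was quantified by TMT10 MS. The value is the DLPTP call of the paper: dose-dependent thermal stabilisation over all temperatures at 10% FDR (F-test of a dose-response against a flat model); one experiment, one call per tested protein.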

Target	dose-dependent thermal stabilisation call
FXR1 (UniProt P51114)	inactive: 0
FLAD1 (UniProt Q8NFF5)	inactive: 0
GLT8D3 (UniProt Q4G148)	inactive: 0
GINS3 (UniProt Q9BRX5)	inactive: 0
FXN (UniProt Q16595)	inactive: 0
FAM49B (UniProt Q9NUQ9)	inactive: 0
FAM96B (UniProt Q9Y3D0)	inactive: 0
GADD45GIP1 (UniProt Q8TAE8)	inactive: 0
FOXP1 (UniProt Q9H334)	inactive: 0
FPGT (UniProt O14772)	inactive: 0
FBXO45 (UniProt P0C2W1)	inactive: 0
GDE1 (UniProt Q9NZC3)	inactive: 0
FER (UniProt P16591)	inactive: 0
G3P1_HUMAN	inactive: 0
GGA3 (UniProt Q9NZ52)	inactive: 0
FBXW9 (UniProt Q5XUX1)	inactive: 0
GFM2 (UniProt Q969S9)	inactive: 0
FEM1B (UniProt Q9UK73)	inactive: 0
GALM (UniProt Q96C23)	inactive: 0
FRAG1	inactive: 0

Target	dose-dependent thermal stabilisation call
GCAT (UniProt O75600)	inactive: 0
FANCG (UniProt O15287)	inactive: 0
GMDS (UniProt O60547)	inactive: 0
GM2A (UniProt P17900)	inactive: 0
GCC2 (UniProt Q8IWJ2)	inactive: 0
GAPDH (UniProt P04406)	inactive: 0
FBXO30 (UniProt Q8TB52)	inactive: 0
G6PD (UniProt P11413)	inactive: 0
FHL3 (UniProt Q13643)	inactive: 0
GATM (UniProt P50440)	inactive: 0
GIT1 (UniProt Q9Y2X7)	inactive: 0
FIP1L1 (UniProt Q6UN15)	inactive: 0
FBRS (UniProt Q9HAH7)	inactive: 0
GATAD2B (UniProt Q8WXI9)	inactive: 0
FIZ1 (UniProt Q96SL8)	inactive: 0
FLYWCH2 (UniProt Q96CP2)	inactive: 0
GLT25D1 (UniProt Q8NBJ5)	inactive: 0
GK5 (UniProt Q6ZS86)	inactive: 0
FNDC3A (UniProt Q9Y2H6)	inactive: 0
FANCI (UniProt Q9NVI1)	inactive: 0
